The nature of the data set: Potentiation of the depressant effects of ethanol, loss of the righting reflex in the mouse. The following applies: in vivo, po. On the procedure:
For this test male Swiss-Webster mice weighing 18 to 20 grams were food deprived 18 hours prior to the experiment. […] Drugs were given orally in 20 ml/kg of 1% CMC. Ethanol (5 gm/kg p.o.) was given 30 minutes after drug injection. Immediately after treatment animals were placed in individual clear plastic containers.
The righting reflex was recorded as being present when the animal would voluntarily roll to its side when placed on its back. Animals were tested for righting reflex every 15 minutes.

Each structure is given as a SMILES string.

Turning to `CN1C(=O)CN=C(c2ccccc2)c2cc(Cl)ccc21` [Diazepam, diazepam, reference compound], the NOAEL – broadly, the highest tested level that showed no adverse finding – came out at 1 mg/kg.

Source of the values: patent US4093617A, “3,5,7-Trisubstituted pyrazolo[1,5-a]pyrimidines” (ICN Pharmaceuticals, Inc., priority 1976, dated 1978).
